Assay results from patent US11607384B2, “Lipid emulsified drug delivery systems for chemoprevention and treatment” (WESTERN UNIVERSITY OF HEALTH SCIENCES, priority 2017, dated 2023).

Legend:
[1] = test system: MIA-PaCa-2 pancreatic cancer cells; test: Colorimetric MTS cytotoxicity assay in MIA-PaCa-2 cells; assay type: cell-based; conditions: Homo sapiens, MIA PaCa-2, 72 h
[2] = test system: Panc-1 pancreatic cancer cells; test: Colorimetric MTS cytotoxicity assay in Panc-1 cells; assay type: cell-based; conditions: Homo sapiens, PANC-1, 72 h

Structure (SMILES): Clc1ccc2c(c1)CCc1cccnc1C2=C1CCNCC1 [DES (free), Desloratadine]
- IC50 [1]: 267 µM
- IC50 [2]: 250 µM
